Common to all, as to format: in vivo, rat
Data set [1] in a line: Body weight, organ weight and feed intake in DS rats. The following applies: 4% salt diet, 2 g daily/kg orally; for Body weight: after 4-week feeding. An excerpt: (§1) Salt-sensitive male Dahl rats of age 7 weeks and with the onset of hypertension (DS) and salt-insensitive male Dahl rats of the same age (DR) were used. The DS rats were fed with a 0.5% salt diet or a 4% salt diet (Oriental Yeast Co., Ltd.) for 4 weeks (individually referred to as 0.5% salt diet group and 4% salt diet group). During the period, D-allose or D-glucose was orally given to the 4% salt diet group at 2 g daily/kg body weight (D-allose group or D-glucose group). The DR rats were fed with the 0.5% salt diet group and used as a normal control group. Blood pressure was measured by the tail-cuff method over time, while before salt loading and on the completion of salt loading, urine was collected for one day. On the last day of the observation period, the thoracic aorta was resected. A part thereof was used to quantify the amount of generated active oxygen in the aorta by the lucigenin method, while another part thereof was used to compare the amount of generated active oxygen between the groups by the dihydroxyethidium (DHE) fluorescence method. So as to assay the expression level of the messenger RNA of the NADPH oxidase involved in the increase of tissue oxidative stress (J Hypertens. 2004; 22:2161-2168), further, the renal cortex and the thoracic aorta were partially stored at −80° C.

Data set [2] can be described thus: Urine generation, Na and protein excretion in urine in DS rats. The following applies: 4% salt diet, 2 g daily/kg orally, after 4-week feeding.
Excerpt: as §1

Data set [3] is described as follows: Body weight, heart weight and kidney weight in SHR. The note with it: 2 g daily/kg orally. The source says: Male spontaneously hypertensive rats of age 8 weeks (SHR) and male Wister KYOTO rats (WKY) of the same age were used. SHR was fed with a 0.5% salt diet or a 8% salt diet (Oriental Yeast Co., Ltd.) for 4 weeks (individually referred to as the 0.5% salt diet group and the 8% salt diet group). Additionally, D-allose or D-glucose was orally given to the 0.5% salt diet group and the 8% salt diet group, at 2 g daily/kg body weight (D-allose group or D-glucose group) during the period. WKY was fed with the 0.5% salt diet and used as a normal control group. Systolic blood pressure was measured by the tail-cuff method over time.

Consider `O=C[C@H](O)[C@@H](O)[C@H](O)[C@H](O)CO` [D-glucose], for which, in data set [1], the feed intake was found to be 21.4±0.8 g/day/rat and the Body weight is 356 ± 10 g. For the same compound, in data set [2], the “Na excretion in urine” value worked out at 123 ± 7 mEq/day and the Urine volume came out at 32.0 ± 2.9 mL/day. For the same compound, in data set [3] (0.5% salt diet), the “Weight after 4 weeks” value is given as 301 ± 4 g. In addition, the “Weight after 4 weeks” value in data set [3] (8% salt diet) is given as 306 ± 5 g.
Turning to `O=C[C@H](O)[C@H](O)[C@H](O)[C@H](O)CO` [D-allose], in data set [1], the feed intake was 20.6±0.8 g/day/rat and the Body weight is 345 ± 7 g. Besides, in data set [2], the “Na excretion in urine” value came out at 126 ± 6 mEq/day and the Urine volume came to 28.7 ± 2.2 mL/day. For the same compound, the “Weight after 4 weeks” value in data set [3] (0.5% salt diet) was 292 ± 4 g. The “Weight after 4 weeks” value in data set [3] (8% salt diet) stood at 304 ± 6 g.
